Source: ChEMBL document CHEMBL3988442, “University of Dundee, Small-Polar-MMV Screening Library” (2021).

Results are given as percent effect.
The controls that fix the scale are not given in the record; negative values are as filed.
This is an unselected part of the compounds tested.

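Assay of Toxoplasma gondii numbers, read through their beta-galactosidase reporter with a colour substrate. Tested at 10 µM. Higher reads as fewer parasites (inferred from which compounds were picked for retests). Size under these conditions: about 67,000 compounds, about 260 of them at 50% or above in at least one test.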

SMILES,percent effect
CCN(CC)Cc1ccc(C(=O)N2CCCC2Cn2cc(C)cn2)o1 (stereo unspecified),5.201%
Clc1ccccc1CN1CCCC(c2nnc(-c3cnccn3)o2)C1 (stereo unspecified),1.464%
[H][C@]12CN(c3ccccn3)CCN1C[C@@H](c1ccccc1)[C@@H]2CO,12.92%
O=C1CC2(CCN(Cc3ccc(Cl)s3)C2)C(=O)N1 (stereo unspecified),18.56%
Cc1c2ncn(CC(=O)N(C)C)c(=O)c2nn1C,-15.57%
CN(C)C(=O)c1cc(-c2ccccc2)[nH]n1,-17.29%
Cc1cc2c(=O)n3c(nc2s1)CCN(C(=O)c1ccn(C)n1)CC3,8.679%
CC(=O)c1cc(CC(=O)NCc2ccc(CN(C)C)cc2)cs1,-13.39%
O=C(O)C(F)(F)F.[H][C@@]12CCN(C(C)C)CC[C@]1([H])[C@H](COCC1CC1)CN(C)C2=O,-4.722%
CCc1nc(C)sc1CN(Cc1ccncc1)C1CCN(C)CC1,-33.58%
C[C@@H]1CN(CCC(=O)NCc2ccccc2Cl)CC[C@@]1(O)C1CCC1,-2.372%
CCn1ccnc1CN(C)c1cc(OC)ncn1,1.036%
[H][C@]12CC[C@]([H])(CN(S(=O)(=O)c3cccc(Cl)c3)C1)N(CCOC)C2=O,30.96%
N#Cc1ccc(CS(=O)(=O)NC(=O)COc2ccc3c(c2)CCC3)cc1,5.869%
Cc1noc(C(C)C)c1C(=O)NS(=O)(=O)c1ccc(Cl)cc1,1.76%
Cc1nc2cc(-c3nccn3C)nn2c(N2CCCC(CO)C2)c1C (stereo unspecified),31.51%
CC(=O)c1sc(Nc2ccc(Cl)cn2)nc1C,5.174%
O=C(O)CC(O)(CC(=O)O)C(=O)O.[H][C@@]12CC[C@@](O)(c3ccc(C)cn3)[C@]1([H])CN(Cc1cc(C)c(O)c(C)c1)C2,21.84%
COc1ccccc1CN1CCC(c2nccc(C)n2)C1 (stereo unspecified),2.836%
Cc1nnc(SCCNC(=O)Cn2cnc3ccccc3c2=O)s1,-8.862%
CC(Oc1ccc2c(c1)OCO2)C(=O)N1CCC(N2CCOCC2)CC1 (stereo unspecified),3.789%
CC(C)(O)CNc1ccc(C#N)c(C(F)(F)F)c1,-3.255%
CNC(=O)c1cc2ccccc2n1C,6.426%
c1ccn(Cc2nnc3n2CCCN(c2cnccn2)C3)c1,25.17%
NCCSc1nccc(-c2cnc(C3CC3)nc2-c2ccco2)n1,-2.238%
Cc1cc(CN2CCN(C(=O)NCc3ccoc3)CC2)no1,-8.767%
Cc1nn(C)cc1-c1cc(C(F)F)nc2sc(C(N)=O)c(N)c12,19.04%
O=C(C1CCCN(Cc2cccnc2)C1)N1CCc2sccc2C1 (stereo unspecified),10.01%
[H][C@@]12C[C@H](C(=O)NCc3ccccc3)[C@@]([H])(CN(S(=O)(=O)N(C)C)C1)O2,7.551%
Cc1cc(NCCc2cnccn2)nc(-c2ccccc2O)n1,-5.637%
CC(C)c1ccc(CNC(C)c2ccc(S(=O)(=O)N(C)C)cc2)cc1 (stereo unspecified),-1.287%
O=C(c1ccc(-n2cccn2)nc1)N1CCC(c2ccc(O)cc2)CC1,2.026%
CCCOc1cccc(NS(=O)(=O)c2cc(C(=O)O)cs2)c1,-1.459%
CCN(C(=O)c1ccc2nnc(C3CCN(S(C)(=O)=O)C3)n2c1)C(C)C (stereo unspecified),1.413%
CC(NCCn1cccn1)c1ccccc1Cl (stereo unspecified),-17.66%
CCc1nnc(CN2CCN(C(=O)c3cc4ccccc4[nH]3)CC2)o1,3.131%
O=C(O)C(F)(F)F.O=C(O)C(F)(F)F.[H][C@@]12CN(C(=O)c3ccccn3)C[C@]1([H])OCCN2C(C)C,-11.71%
Cn1cc(C(=O)Nc2ccc(CC(=O)NCC(F)(F)F)cc2)nn1,-15.07%
COc1ccc(OCCCN(C)C(=O)C2CCCN2C(N)=O)cc1 (stereo unspecified),1.366%
O=c1cc(-c2cccnc2)nc(-c2ccc(CN3CC[C@@H](O)C3)cc2)[nH]1,6.343%
Cc1ccccc1C1(C(=O)N2CCOC(C)C2)CCOCC1 (stereo unspecified),-6.64%
Cc1cnccc1NCCNC1CCSCC1,6.619%
C=Cn1ncc(CN2CCc3nc(-c4ccncc4)nc(O)c3C2)c1C,13.13%
CC(C)N(C)CCNC(=O)N(C)CC1CCOCC1,2.641%
CC(CNC(=O)CCc1ccccn1)c1ccsc1 (stereo unspecified),-3.482%
CCn1nc(C)c(C(C)Nc2cc(C3CCNCC3)nc(C)n2)c1C (stereo unspecified),9.973%
CNc1cc(C(=O)N2CCCCC2CCn2ccnc2C)ccn1 (stereo unspecified),2.261%
CCCNC(=O)NCc1nc(C)c(C)o1,-0.5196%
O=C(Cc1cnc(-c2c(Cl)cccc2Cl)s1)N1CCC2(CC1)OCCO2,-0.2403%
C=Cc1ccc(C(=O)N2CCCC(Nc3ccc(F)cc3)C2)cc1 (stereo unspecified),-2.885%
O=S(=O)(c1cnccc1N1CCN(CCO)CC1)N1CCCCC1,-0.609%
Cc1cn(CC(=O)NC2CCN(CC3CC3)CC2)c2ccccc12,-14.38%
CCCn1ccc2cc(NC(=O)CC3CCCO3)ccc21 (stereo unspecified),1.163%
O=c1ccc(-c2cccs2)nn1CN1CCN(Cc2ccccc2)CC1,-4.423%
CCOc1nnc(CN(CC)CC(=O)Nc2c(F)cccc2F)s1,-0.363%

For reference, 7 entries once more:

SMILES,percent effect
O=C(O)CC(O)(CC(=O)O)C(=O)O.[H][C@@]12CC[C@@](O)(c3ccc(C)cn3)[C@]1([H])CN(Cc1cc(C)c(O)c(C)c1)C2,21.84%
O=C(c1ccc(-n2cccn2)nc1)N1CCC(c2ccc(O)cc2)CC1,2.026%
O=C(Cc1cnc(-c2c(Cl)cccc2Cl)s1)N1CCC2(CC1)OCCO2,-0.2403%
CN(C)C(=O)c1cc(-c2ccccc2)[nH]n1,-17.29%
Cc1nnc(SCCNC(=O)Cn2cnc3ccccc3c2=O)s1,-8.862%
COc1ccccc1CN1CCC(c2nccc(C)n2)C1 (stereo unspecified),2.836%
CCc1nc(C)sc1CN(Cc1ccncc1)C1CCN(C)CC1,-33.58%